Data: the supplement of paper PMC11006884
The list shows a part of the results, in another mix than the full data.

Amino acid sequences for entries named in this document (tags omitted). A change or cut given only in a name is not applied to a line headed by its entry.
UniProt Q9P275: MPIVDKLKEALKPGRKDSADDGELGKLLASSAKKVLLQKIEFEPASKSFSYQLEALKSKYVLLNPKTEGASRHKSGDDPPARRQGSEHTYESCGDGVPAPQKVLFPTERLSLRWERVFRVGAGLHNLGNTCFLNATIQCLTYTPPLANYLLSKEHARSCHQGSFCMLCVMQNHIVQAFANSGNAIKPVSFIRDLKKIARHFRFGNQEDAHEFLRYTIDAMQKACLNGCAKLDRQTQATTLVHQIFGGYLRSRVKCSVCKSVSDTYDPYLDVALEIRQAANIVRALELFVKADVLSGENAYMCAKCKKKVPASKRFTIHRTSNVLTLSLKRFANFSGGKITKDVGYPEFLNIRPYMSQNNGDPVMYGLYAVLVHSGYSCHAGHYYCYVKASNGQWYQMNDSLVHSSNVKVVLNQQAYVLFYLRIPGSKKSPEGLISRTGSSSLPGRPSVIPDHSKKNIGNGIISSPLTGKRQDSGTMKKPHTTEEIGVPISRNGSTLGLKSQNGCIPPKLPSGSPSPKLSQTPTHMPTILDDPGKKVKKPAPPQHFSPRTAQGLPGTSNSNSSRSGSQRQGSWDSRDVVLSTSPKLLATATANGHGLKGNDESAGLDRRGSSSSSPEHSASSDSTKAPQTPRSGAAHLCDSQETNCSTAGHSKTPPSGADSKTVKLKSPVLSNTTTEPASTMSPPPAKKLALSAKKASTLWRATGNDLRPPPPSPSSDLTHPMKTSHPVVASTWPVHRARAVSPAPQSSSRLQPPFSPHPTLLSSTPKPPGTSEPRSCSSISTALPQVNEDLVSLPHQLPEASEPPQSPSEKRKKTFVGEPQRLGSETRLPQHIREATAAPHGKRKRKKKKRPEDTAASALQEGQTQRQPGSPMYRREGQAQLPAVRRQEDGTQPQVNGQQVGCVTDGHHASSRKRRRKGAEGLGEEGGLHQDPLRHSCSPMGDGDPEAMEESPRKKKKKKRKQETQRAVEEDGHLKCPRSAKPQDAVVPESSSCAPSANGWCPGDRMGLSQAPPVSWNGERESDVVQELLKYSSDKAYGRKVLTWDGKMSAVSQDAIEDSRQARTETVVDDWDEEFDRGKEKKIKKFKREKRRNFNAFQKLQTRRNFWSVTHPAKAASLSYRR
UniProt Q9UFW8: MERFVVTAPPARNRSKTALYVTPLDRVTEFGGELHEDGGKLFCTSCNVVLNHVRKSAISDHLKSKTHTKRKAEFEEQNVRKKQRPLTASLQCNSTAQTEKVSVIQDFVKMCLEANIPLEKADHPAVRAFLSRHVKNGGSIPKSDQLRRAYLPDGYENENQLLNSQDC
UniProt Q9UBF2: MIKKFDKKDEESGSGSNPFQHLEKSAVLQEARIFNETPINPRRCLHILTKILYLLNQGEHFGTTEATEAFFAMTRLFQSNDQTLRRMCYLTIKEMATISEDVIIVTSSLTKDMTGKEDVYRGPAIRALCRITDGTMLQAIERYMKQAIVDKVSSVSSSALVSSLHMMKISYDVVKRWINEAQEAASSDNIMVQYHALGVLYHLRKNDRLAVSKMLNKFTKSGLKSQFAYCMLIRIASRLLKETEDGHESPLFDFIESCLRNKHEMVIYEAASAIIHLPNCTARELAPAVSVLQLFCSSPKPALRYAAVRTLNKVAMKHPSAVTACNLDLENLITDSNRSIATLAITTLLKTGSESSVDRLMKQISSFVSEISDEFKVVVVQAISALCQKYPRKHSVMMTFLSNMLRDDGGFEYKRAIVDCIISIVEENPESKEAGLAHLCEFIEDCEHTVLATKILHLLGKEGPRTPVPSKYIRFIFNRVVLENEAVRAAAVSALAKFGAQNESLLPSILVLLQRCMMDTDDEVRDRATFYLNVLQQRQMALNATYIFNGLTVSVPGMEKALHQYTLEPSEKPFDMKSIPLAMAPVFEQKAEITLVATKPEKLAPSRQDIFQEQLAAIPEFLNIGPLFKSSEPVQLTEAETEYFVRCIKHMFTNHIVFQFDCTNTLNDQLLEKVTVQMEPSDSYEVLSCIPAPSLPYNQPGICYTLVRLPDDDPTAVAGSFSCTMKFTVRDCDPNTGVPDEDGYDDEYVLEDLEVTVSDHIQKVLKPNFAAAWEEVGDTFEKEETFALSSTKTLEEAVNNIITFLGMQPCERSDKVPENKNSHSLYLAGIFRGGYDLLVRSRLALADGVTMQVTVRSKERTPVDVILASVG
UniProt Q9P0L0: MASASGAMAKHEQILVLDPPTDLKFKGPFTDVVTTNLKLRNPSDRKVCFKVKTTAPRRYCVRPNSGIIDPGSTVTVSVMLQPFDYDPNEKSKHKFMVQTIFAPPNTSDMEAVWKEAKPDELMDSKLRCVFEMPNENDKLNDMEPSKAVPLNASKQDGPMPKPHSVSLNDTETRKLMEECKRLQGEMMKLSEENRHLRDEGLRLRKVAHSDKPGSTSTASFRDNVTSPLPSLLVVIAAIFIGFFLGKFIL
UniProt Q9NVS9: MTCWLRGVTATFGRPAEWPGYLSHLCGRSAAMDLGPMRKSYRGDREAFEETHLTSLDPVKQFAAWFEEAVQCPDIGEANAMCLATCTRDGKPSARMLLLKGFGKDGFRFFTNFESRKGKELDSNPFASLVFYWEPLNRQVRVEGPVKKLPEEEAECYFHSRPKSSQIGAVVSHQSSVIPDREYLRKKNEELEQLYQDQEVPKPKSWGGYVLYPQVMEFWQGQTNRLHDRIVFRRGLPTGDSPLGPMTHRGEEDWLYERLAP
UniProt Q9UBB4: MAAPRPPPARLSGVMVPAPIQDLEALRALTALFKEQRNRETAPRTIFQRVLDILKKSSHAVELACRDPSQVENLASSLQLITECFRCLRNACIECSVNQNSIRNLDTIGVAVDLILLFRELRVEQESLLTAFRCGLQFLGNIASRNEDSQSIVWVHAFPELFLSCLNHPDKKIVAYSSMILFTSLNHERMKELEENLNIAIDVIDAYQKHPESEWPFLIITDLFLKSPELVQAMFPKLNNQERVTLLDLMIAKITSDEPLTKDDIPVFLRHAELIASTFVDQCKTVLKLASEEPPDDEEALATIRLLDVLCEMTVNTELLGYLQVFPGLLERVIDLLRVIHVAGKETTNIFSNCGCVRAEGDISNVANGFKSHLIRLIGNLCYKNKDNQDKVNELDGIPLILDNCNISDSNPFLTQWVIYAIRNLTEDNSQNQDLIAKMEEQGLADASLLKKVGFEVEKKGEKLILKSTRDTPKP
UniProt Q9NXW9: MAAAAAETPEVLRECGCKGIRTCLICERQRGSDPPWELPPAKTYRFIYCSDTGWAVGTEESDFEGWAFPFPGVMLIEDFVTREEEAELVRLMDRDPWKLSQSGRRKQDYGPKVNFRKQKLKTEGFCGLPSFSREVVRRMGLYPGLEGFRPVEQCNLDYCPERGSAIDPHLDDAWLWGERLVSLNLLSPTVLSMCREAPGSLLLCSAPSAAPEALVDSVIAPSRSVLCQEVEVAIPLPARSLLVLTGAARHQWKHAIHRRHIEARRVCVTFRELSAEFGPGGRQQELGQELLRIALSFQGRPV
UniProt Q9P2D1: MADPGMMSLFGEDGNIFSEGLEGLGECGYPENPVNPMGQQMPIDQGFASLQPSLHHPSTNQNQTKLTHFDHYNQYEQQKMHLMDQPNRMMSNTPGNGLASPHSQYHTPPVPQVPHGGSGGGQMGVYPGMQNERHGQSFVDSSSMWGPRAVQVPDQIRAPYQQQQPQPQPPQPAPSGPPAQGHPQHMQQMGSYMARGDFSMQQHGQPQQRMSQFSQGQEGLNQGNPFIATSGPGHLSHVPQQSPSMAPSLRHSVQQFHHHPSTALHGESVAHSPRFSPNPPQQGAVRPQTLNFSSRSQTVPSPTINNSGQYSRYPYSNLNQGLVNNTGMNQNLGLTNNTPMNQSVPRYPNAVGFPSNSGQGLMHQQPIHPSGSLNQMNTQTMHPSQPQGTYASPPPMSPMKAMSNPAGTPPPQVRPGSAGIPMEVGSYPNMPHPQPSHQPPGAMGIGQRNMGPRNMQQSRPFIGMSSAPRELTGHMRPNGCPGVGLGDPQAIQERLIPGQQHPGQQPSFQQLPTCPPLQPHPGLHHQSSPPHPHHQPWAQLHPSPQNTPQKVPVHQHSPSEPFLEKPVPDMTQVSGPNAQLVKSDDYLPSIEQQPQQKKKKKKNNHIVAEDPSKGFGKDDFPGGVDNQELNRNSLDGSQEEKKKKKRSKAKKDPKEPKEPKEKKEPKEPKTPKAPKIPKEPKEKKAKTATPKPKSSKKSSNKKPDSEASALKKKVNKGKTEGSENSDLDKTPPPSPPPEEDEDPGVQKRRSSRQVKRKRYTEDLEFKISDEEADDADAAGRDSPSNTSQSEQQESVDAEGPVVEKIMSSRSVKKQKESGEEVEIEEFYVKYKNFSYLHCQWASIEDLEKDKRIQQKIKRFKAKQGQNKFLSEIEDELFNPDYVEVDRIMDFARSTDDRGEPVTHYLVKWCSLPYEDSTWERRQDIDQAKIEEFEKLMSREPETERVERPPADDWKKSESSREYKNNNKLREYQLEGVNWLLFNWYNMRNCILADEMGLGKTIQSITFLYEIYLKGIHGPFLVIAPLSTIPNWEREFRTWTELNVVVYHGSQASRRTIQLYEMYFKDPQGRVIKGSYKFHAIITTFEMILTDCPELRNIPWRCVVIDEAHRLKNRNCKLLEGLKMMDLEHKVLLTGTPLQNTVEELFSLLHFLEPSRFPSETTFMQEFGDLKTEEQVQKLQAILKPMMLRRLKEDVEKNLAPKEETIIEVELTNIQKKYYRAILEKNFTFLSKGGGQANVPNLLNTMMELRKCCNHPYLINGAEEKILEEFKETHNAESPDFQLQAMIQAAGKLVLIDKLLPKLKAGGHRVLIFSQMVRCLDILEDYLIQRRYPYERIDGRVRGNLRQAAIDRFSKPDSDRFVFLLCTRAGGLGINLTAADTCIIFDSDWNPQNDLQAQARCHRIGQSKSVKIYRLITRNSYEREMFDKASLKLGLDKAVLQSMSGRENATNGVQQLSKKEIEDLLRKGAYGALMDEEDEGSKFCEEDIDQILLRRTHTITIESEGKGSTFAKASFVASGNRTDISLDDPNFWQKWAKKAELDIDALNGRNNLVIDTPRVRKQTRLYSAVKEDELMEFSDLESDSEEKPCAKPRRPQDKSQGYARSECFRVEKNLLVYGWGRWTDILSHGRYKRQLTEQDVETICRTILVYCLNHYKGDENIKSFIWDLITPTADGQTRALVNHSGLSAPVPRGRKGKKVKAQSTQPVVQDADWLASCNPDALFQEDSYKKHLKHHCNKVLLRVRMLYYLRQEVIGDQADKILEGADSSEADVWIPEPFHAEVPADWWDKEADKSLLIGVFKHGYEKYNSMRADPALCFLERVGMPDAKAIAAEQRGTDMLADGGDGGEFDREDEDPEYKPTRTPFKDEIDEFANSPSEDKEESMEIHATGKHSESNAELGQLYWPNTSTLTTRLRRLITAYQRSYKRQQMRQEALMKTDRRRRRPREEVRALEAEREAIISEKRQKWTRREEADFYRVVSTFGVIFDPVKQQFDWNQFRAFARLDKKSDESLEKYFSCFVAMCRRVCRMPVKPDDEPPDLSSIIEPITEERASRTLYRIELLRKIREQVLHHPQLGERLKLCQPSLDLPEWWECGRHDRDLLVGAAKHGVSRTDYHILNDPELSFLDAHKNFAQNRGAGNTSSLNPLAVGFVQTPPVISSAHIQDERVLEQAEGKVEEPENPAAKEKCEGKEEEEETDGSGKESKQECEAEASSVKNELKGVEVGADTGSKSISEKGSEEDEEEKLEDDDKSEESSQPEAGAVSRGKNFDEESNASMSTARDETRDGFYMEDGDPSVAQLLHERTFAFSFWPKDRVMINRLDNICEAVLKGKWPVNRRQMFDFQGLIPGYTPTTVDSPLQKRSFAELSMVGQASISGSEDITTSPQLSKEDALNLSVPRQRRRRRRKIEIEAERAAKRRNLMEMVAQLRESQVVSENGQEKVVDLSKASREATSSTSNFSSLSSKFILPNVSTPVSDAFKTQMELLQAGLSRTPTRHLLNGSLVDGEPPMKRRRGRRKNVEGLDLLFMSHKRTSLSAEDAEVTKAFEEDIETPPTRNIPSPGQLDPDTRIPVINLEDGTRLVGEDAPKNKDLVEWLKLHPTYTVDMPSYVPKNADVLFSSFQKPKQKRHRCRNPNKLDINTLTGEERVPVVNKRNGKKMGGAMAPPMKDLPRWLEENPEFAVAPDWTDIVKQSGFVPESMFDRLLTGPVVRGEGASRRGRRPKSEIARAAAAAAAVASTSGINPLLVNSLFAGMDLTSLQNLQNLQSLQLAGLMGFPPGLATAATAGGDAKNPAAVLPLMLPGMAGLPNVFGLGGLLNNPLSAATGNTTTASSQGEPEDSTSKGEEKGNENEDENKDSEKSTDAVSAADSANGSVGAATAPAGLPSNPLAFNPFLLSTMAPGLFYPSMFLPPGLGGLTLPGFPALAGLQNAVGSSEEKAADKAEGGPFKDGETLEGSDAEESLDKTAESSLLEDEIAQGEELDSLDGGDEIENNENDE

Compound: COC(=O)C#Cc1ccccc1 [methyl 3-phenylpropiolate]
Assay: log2 ratio of iodoacetamide-alkyne labeling of the cysteine site, DMSO over compound (competition); higher = stronger covalent engagement of the cysteine by the compound, active = 1 or more
Settings: 500 µM; treatment time 1 h; system: HEK293T cell lysate
How it was run: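 Electrophile (500 µM) or vehicle was added to HEK293T lysate (2 mg/mL) for 1 h at ambient temperature before iodoacetamide alkyne labelling (1 h) and click coupling to sCIP-TMT reagents. After pooling, overnight trypsin digestion at 37 °C, streptavidin enrichment and acid elution, peptides were measured by Orbitrap Eclipse LC-MS/MS with FAIMS and quantified in FragPipe. Each cysteine's log2 competition ratio compares mean control-channel with mean compound-channel reporter intensity, control over compound. Data came from duplicate channels across three replicates, excluding cysteines quantified in only one replicate.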

log2 ratio of iodoacetamide-alkyne labeling, inactive:
USP36 C977 (UniProt Q9P275) 0.897
CPSF2 C763 (UniProt Q9P2I0) -0.0874
ASF1B C189 (UniProt Q9NVP2) 0.0773
CGGBP1 C167 (UniProt Q9UFW8) 0.0581
COPG2 C440 (UniProt Q9UBF2) 0.463
GMPR2 C348 (UniProt Q9P2T1) 0.0583
ZNF629 C110 (UniProt Q9UEG4) 0.632
VAPA C128 (UniProt Q9P0L0) 0.149
MPP6 C432 (UniProt Q9NZW5) 0.479
PNPO C72 (UniProt Q9NVS9) -0.0958
ATXN10 C283 (UniProt Q9UBB4) 0.167
RAI14 C110 (UniProt Q9P0K7) -0.377
UniProt Q9P289_C410 0.385
ALKBH4 C194 (UniProt Q9NXW9) -0.0775
CHD7 C909 (UniProt Q9P2D1) 0.159

Quoted at random: two entries already listed, in no set order.
log2 ratio of iodoacetamide-alkyne labeling, inactive:
VAPA C128 (UniProt Q9P0L0) 0.149
CPSF2 C763 (UniProt Q9P2I0) -0.0874
